Here are results for 3 substances from article PMC2243017.

The target in assay [1] is T1, GST-JIP1 full-length fusion protein (UniProt Q9WVI9).
T1 sequence: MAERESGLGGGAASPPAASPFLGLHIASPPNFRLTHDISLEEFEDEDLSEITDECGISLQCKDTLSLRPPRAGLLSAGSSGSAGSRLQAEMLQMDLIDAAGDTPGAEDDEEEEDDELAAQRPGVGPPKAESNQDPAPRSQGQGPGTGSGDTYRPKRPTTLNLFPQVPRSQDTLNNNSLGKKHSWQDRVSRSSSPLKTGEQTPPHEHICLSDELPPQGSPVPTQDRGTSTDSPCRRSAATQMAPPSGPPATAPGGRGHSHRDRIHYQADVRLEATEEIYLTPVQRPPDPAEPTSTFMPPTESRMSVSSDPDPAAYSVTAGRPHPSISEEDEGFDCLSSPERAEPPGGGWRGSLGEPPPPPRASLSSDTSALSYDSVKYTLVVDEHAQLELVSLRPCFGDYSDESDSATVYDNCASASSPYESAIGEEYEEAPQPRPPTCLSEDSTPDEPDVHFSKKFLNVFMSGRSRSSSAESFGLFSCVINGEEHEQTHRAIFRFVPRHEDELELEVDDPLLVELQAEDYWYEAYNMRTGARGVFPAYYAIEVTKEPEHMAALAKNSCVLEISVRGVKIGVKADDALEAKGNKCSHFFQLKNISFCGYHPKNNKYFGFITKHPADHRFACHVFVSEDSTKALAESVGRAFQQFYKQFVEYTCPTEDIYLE
The experiment in a line: pull-down; lysates of transfected Cos1 cells (48 h; 20 mM Tris-HCl pH 7.4, 137 mM NaCl, 2 mM EDTA, 1% Triton-X100) mixed with glutathione-Sepharose beads 12 h at 4°C to bring down the GST fusion protein; associated transfected or endogenous proteins detected by western blot. Background: Immunoblotting shows a protein as a band on a membrane.

In assay [2] the target is T1, GST-JIP1 full-length fusion protein. Briefly: SEC; extracts of Cos1 cells transfected with pGST-JIP1 alone or with pHA-TAK1, pFlag-TAB1, pFlag-MKK7, pFlag-JNK, without or with pCEFL-HA-VRK2A or pCEFL-HA-VRK2B, fractionated on Superose 12 10/300 GL (50 mM Tris-HCl pH 7.5, 1 mM EDTA, 100 mM KCl); fractions analysed by western blot.

These are yes or no findings as the source states them, for the method shown. A result given as binding can be weak or reduced; the word gives no strength. Tags and fused reporters may be left off the sequences shown. For some of these results: Binding seen in cells or lysates may run through a third protein.

Regarding Flag-MKK7β1 (enzyme), the binding result in assay [1] and in assay [2] was “binds” each time.
Take “HA-VRK2B (K169E), kinase-dead (from UniProt Q86Y07-2) (enzyme)”: the binding result in assay [1] is recorded as “binds”.
On to “HA-VRK2A (K169E), kinase-dead (from UniProt Q86Y07-1) (enzyme)”, for which the binding entry in assay [1] was “binds”.
